The text below walks through data of publication doi:10.1101/2020.01.09.900407.

The chains behind the UniProt entries cited, without tags or fusion partners. Where a name states a change or a piece, a line headed by the entry shows the natural chain unless it says otherwise.
UniProt Q99MQ3: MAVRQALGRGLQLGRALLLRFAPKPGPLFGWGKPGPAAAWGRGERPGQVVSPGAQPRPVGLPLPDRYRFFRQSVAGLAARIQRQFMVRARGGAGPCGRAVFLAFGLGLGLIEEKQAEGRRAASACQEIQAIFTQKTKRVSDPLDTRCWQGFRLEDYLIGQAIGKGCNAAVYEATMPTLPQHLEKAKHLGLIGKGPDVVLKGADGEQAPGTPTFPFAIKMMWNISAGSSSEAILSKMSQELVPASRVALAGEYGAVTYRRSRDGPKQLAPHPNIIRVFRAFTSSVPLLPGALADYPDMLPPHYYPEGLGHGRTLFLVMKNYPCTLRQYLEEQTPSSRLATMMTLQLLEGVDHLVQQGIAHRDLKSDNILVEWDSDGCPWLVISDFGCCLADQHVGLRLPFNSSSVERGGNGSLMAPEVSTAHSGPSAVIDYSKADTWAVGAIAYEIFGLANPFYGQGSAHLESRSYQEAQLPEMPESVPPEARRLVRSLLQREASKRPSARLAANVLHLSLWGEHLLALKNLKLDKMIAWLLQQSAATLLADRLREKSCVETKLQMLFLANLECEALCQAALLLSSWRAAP

These are yes or no findings as the source states them, for the method shown. Binding seen in cells or lysates may run through a third protein. A result given as binding can be weak or reduced; the word gives no strength.

The assay addresses T1, ECSIT (mouse (endogenous in cortex)) (UniProt Q9QZH6).
T1 sequence: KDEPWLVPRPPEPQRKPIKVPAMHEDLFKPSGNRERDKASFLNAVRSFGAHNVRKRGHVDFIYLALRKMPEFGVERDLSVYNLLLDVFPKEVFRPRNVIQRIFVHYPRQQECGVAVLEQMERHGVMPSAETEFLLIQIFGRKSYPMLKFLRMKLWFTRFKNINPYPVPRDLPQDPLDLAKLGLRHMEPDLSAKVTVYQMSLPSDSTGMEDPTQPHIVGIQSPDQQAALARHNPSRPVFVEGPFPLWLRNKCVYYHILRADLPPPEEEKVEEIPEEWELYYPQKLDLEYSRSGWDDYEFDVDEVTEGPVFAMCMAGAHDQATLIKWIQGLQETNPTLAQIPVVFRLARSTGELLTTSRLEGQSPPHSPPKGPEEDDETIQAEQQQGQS
The assay can be described thus: co-IP.

Take “full-length (FL-)PINK1 (from UniProt Q99MQ3)”: the binding entry is “binds”.
